From BindingDB's records for doi:10.1038/305140a0 (College of France, 1983) come the findings set out here.

Where “and” joins values, the source holds several entries; their conditions need not be identical. Identical values can stand only once.

The target in the experiment is T1, 5-hydroxytryptamine receptor 1A (Rattus norvegicus, UniProt P19327).
T1 sequence (P19327 whole entry): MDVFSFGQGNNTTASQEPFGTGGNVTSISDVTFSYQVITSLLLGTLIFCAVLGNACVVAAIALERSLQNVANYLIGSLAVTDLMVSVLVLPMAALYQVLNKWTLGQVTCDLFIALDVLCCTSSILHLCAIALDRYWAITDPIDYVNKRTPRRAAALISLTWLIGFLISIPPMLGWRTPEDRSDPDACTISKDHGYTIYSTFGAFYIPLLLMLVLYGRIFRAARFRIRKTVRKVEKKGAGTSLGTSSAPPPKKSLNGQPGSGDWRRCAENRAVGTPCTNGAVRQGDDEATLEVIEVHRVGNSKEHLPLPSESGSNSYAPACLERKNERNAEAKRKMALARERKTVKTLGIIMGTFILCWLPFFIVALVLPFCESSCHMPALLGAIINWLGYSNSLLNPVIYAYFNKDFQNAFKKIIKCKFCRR

With `CN1CCC(=C2c3ccccc3C=Cc3ccccc32)CC1` [5-(1-methylpiperidylidene-4)-5H-dibenzo(a,d)cyclopheptene], the inhibitory constant (Ki) (as a rule, the dissociation constant of the complex between target and ligand, obtained from inhibition or displacement) was 0.977 µM and 5.25 µM.
